## Drug screen on melanoma cell lines: apoptosis marker

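Human melanoma cell lines in 1,536-well plates were treated with a pair of drugs for 72 h, then fixed, stained and imaged. The read-out is the fraction of cleaved-PARP-positive nuclei, in % of that fraction in the DMSO control; 200 means twice the control level of this apoptosis marker. Concentrations were fixed for each drug; these are the higher of two levels. No replicate spread is given; individual values may be noisy. Basal and induced levels differ widely between cell lines.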
An unselected part of the screen is shown.
An entry leaves out what has no value listed here.
A dash means that no value is listed here.

Drugs:
RKI-983: C[C@@H](N)c1ccc(C(=O)Nc2ccnc3[nH]ccc23)cc1 at 2000 nM
KU-55933: O=c1cc(-c2cccc3c2Sc2ccccc2S3)oc(N2CCOCC2)c1 at 5000 nM
palbociclib: CC(=O)c1c(C)c2cnc(Nc3ccc(N4CCNCC4)cn3)nc2n(C2CCCC2)c1=O at 200 nM
tozasertib: Cc1cc(Nc2cc(N3CCN(C)CC3)nc(Sc3ccc(NC(=O)C4CC4)cc3)n2)n[nH]1 at 30 nM
bexarotene: C=C(c1ccc(C(=O)O)cc1)c1cc2c(cc1C)C(C)(C)CCC2(C)C at 10000 nM

| Cell line | KU-55933 + bexarotene | palbociclib + RKI-983 | tozasertib + RKI-983 | KU-55933 + palbociclib | tozasertib + KU-55933 | RKI-983 + KU-55933 | tozasertib + palbociclib |
|---|---|---|---|---|---|---|---|
| A375 | 91.8 | 161 | 104 | 99.4 | 38.8 | 78.9 | 111 |
| SK-MEL-2 | 156 | 107 | 158 | 181 | 123 | 165 | 73.5 |
| LB2518-MEL | 172 | 49.5 | 82.1 | 144 | 65.6 | 121 | 49.3 |
| IST-MEL1 | 112 | 95.7 | 73.6 | 52.6 | 22.1 | 191 | 61.8 |
| COLO 829 | 102 | 55.5 | 152 | 94.0 | 156 | 119 | 135 |
| UACC-257 | 63.2 | 222 | 416 | 37.9 | 28.8 | 103 | 98.5 |
| SK-MEL-28 | 87.2 | 288 | 201 | 99.9 | 119 | 108 | 76.3 |
| SK-MEL-30 | 19.6 | 113 | 137 | 94.3 | 71.7 | 107 | 88.4 |
| UACC-62 | 114 | 318 | 281 | 234 | 326 | 286 | 229 |
| SK-MEL-5 | 58.3 | 516 | 81.8 | 154 | 131 | 78.3 | 272 |
| 501mel | 131 | - | - | 119 | 44.0 | 32.6 | - |
| WM1716 | 108 | 141 | 149 | 230 | 106 | 416 | 118 |
| WM3619 | 81.1 | 147 | 117 | 134 | 125 | 123 | 164 |
| MEL-HO | 84.0 | 234 | 74.5 | 233 | 386 | 56.7 | 140 |
| A101D | 130 | 111 | 126 | 737 | 67.0 | 180 | 197 |
| COLO 792 | 62.5 | 227 | 211 | 70.5 | 106 | 250 | 91.5 |
| WM1745 | - | 171 | 207 | - | - | - | 321 |
| RPMI-7951 | 52.7 | 109 | 56.7 | 441 | 205 | 77.7 | 83.1 |
| MeWo | 105 | 124 | 290 | 69.2 | 205 | 202 | 163 |
| LOX IMVI | 105 | 276 | 243 | 84.8 | 119 | 119 | 190 |
| WM3526 | 78.5 | 33.0 | 58.0 | 241 | 208 | 100 | 89.9 |
| IPC-298 | 93.1 | 164 | 73.8 | 59.2 | 96.3 | 205 | 128 |
| MZ2-MEL | 443 | 273 | 435 | 110 | 315 | 581 | 63.3 |
| A2058 | 31.8 | 144 | 250 | 137 | 81.3 | 165 | 116 |
| G-361 | 97.5 | 134 | 87.1 | 227 | 222 | 323 | 44.0 |
| WM451Lu | 228 | 169 | 208 | 176 | 60.5 | 37.9 | 177 |
| RVH-421 | 27.7 | 137 | 183 | 186 | 156 | 264 | 89.6 |
| COLO 800 | 66.3 | 79.8 | 540 | 177 | 363 | 208 | 139 |
| C32 | 81.6 | 376 | 432 | 119 | 102 | 93.6 | 347 |
| WM115 | 77.5 | 91.0 | 97.6 | 337 | 159 | 86.5 | 324 |

The last 3 entries again:

- COLO 800 | KU-55933 + bexarotene: 66.3; palbociclib + RKI-983: 79.8; tozasertib + RKI-983: 540; KU-55933 + palbociclib: 177; tozasertib + KU-55933: 363; RKI-983 + KU-55933: 208; tozasertib + palbociclib: 139
- C32 | KU-55933 + bexarotene: 81.6; palbociclib + RKI-983: 376; tozasertib + RKI-983: 432; KU-55933 + palbociclib: 119; tozasertib + KU-55933: 102; RKI-983 + KU-55933: 93.6; tozasertib + palbociclib: 347
- WM115 | KU-55933 + bexarotene: 77.5; palbociclib + RKI-983: 91.0; tozasertib + RKI-983: 97.6; KU-55933 + palbociclib: 337; tozasertib + KU-55933: 159; RKI-983 + KU-55933: 86.5; tozasertib + palbociclib: 324

Values as published with doi:10.1371/journal.pone.0140310, rounded.